Measurements published in the supplement of paper PMC3334620.
In all, about 33,000 sequences were measured (“E-score (-0.5 to 0.5)”: median about -8e-05, highest 2% from about 0.23 on). This is one part of the list.

What follows are sequences tested against T1, Nrg2 (UniProt P38082) (assay: PBM E-score (8-mer binding enrichment) (E-score (-0.5 to 0.5)); higher = stronger / more preferred TF binding). Conditions: protein concentration: 100 nM; construct: GST-full length.
T1 sequence: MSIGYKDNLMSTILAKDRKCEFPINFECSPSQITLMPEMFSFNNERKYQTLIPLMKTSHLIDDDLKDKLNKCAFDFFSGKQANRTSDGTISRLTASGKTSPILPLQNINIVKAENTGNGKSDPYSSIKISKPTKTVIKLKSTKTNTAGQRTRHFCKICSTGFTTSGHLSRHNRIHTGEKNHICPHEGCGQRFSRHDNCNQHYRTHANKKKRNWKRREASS
Procedure, shortened: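 The E-score, a modified Wilcoxon-Mann-Whitney statistic, was computed by the Universal PBM Analysis Suite for every ungapped eight-base word pooled with its reverse complement. Scans behind it were normalised with masliner after bound GST-tagged yeast transcription factors were detected with fluorescent anti-GST. The proteins, at about 100-200 nM, had been applied to universal all-10-mer Agilent arrays made double-stranded by primer extension.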

Sequence	PBM E-score
CAAGAGAA	0.232
ACGACGTC	-0.0396
CGATCGGC	0.149
GGACTAAA	-0.0147
AATCAGAG	0.0409
AAAGTCGC	0.0396
ATGGGCAG	0.128
CCAAACGA	0.0394
CCCGAAGA	-0.119
TACGGCCA	-0.0878
GCGAGAAC	0.196
AGTCGACC	-0.0853
GCATCCGA	-0.153
CGGCTTTA	-0.127
GCCCCGCA	-0.112
ACAGCACA	0.0761
ACCTGTCT	-0.0384
AACTAACG	0.05
ATCTGTAA	-0.0984
ACTTAGCT	-0.202
CAATTGAG	0.134
CTGCTTGC	0.00199
GCCTAGGA	-0.231
ACACCCCG	-0.0934

Sequence	PBM E-score
GCTAAGTA	0.0538
CCTTTGCA	0.0126
AGCGGCCT	-0.275
AGCTGACA	-0.0361
CCGTATTC	-0.0915
ACGCTCGA	-0.195
GCTGCGCA	-0.0835
AGTTGTAG	0.126
ACAAGGGA	-0.0167
AGTAAGAG	-0.0249
TAAACTGA	0.114
AACATAGG	0.0699
CACACCGC	-0.0842
GCGTCACA	0.0739
CCTCCAAA	-0.0762
ACGTCGGC	-0.00351
ACCGCACA	0.0729
AAAGGCTA	-0.0442
ACCTATTC	-0.0957
AAATCGGA	0.0244
GTCATTGA	0.0201
GATTCTAA	-0.063
AAGTCCGG	-0.0623
AGGTCTAA	-0.0895

Sequence	PBM E-score
ACATGCCC	-0.132
ACAATCGC	0.0957
CCCGTAGA	-0.319
ACCACGGT	-0.279
CAAGTCCG	0.00938
AAATATGT	0.113
AAAATACT	-0.0205
ATATTCAG	0.116
ATGAGTCA	-0.0267
CCCACCAG	-0.118
ACGGGACG	0.0144
AATCAGGG	0.0765
GTCAGCGA	0.00889
GCACCCCA	0.2
ATGAATTG	0.179
TGTGAACA	-0.0105
TACGTAAA	-0.176
GTCGACAC	-0.0901
CATCGTAC	0.0203
CGGGTCAA	-0.0478
CACCTTAA	0.11
GTGTTGGA	0.0641
TGGTCAAA	0.109
CCAGCCCC	-0.00105

Sequence	PBM E-score
AATTATGG	0.0237
GAGAGGGA	-0.231
ATCCCTAC	0.161
CAATAGAC	0.18
AGCTAACA	-0.0582
CCGTTAGG	-0.0482
AGGCCAAT	0.0662
ACATCCCA	0.00386
GACGCCCA	0.00228
AAGGCGTG	-0.0825
CGACCCTC	-0.165
GGCTTTGA	0.051
AACTAAGG	0.0414
CTAATAAA	0.259
GAGAAGCA	-0.00086
AGGCGAAC	0.0815
CAAGCTAG	-0.1
CGCGACGA	0.176
AGAGTAGA	0.0687
AGGTCGCC	-0.0641
CAAACACA	0.177
CACGTTCC	-0.0446

Looked up one by one from the entries so far (four):
Sequence	PBM E-score
AGTCGACC	-0.0853
ACTTAGCT	-0.202
CGGGTCAA	-0.0478
AAGGCGTG	-0.0825
